# Percent effect of library compounds

Protein sequences, listed by entry. Tags and fused reporters are not part of them. Residues count along the entry.
UniProt A4I591, 1-473: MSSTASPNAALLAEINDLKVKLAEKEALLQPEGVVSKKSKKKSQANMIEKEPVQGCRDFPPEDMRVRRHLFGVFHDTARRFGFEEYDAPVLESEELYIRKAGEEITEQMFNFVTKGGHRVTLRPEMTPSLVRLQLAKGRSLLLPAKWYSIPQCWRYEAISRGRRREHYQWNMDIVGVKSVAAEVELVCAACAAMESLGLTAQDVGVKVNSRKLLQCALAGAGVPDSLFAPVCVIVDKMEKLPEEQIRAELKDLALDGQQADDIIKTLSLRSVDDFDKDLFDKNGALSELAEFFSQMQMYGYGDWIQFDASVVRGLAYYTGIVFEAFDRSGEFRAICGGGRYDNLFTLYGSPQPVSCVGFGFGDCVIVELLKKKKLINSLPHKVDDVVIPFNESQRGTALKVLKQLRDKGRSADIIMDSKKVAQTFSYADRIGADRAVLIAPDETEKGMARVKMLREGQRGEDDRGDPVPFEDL

Source: ChEMBL document CHEMBL3988442, “University of Dundee, Small-Polar-MMV Screening Library” (2021).

Each number is a percent effect as filed.
The controls that fix the scale are not given in the record; negative values are as filed.
The compounds are a random part of those screened.

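Histidine-tRNA ligase, Leishmania infantum (UniProt A4I591). Enzyme assay of histidyl-tRNA synthetase; the read-out is not stated. Compounds at 30 µM. Higher reads as stronger inhibition (inferred: compounds with an IC50 in retests scored well above the rest). The assay is labelled LdHisRS but filed under L. infantum. Of about 69,000 compounds tested this way, about 410 (0.6%) reached 50% or more in at least one test.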

SMILES: Cc1cc(NCc2noc(C(C)C)n2)nc(-c2ccccc2)n1
Percent Effect: -1.149%

SMILES: CC(=O)c1c(C)nn(CC(=O)Nc2ccc(Br)cc2)c1C
Percent Effect: 71.3%

SMILES: Cc1nc(C2CCCN(S(C)(=O)=O)C2)sc1Br (stereo not shown)
Percent Effect: 5.634%

SMILES: CC(=O)c1cccc(NCC(=O)NC(N)=O)c1
Percent Effect: 6.306%

SMILES: Cc1ccc(C(=O)N2CC[C@@H]3[C@H]2CCC(=O)N3c2ccccc2)o1
Percent Effect: 10.95%

SMILES: COc1ccc(CC(=O)N2CCCC(Cn3cc(CN)nn3)C2)cc1 (stereo not shown)
Percent Effect: 22.4%

SMILES: COc1ccc(CCN)cc1-c1ccc(C(N)=O)cc1
Percent Effect: 71.83%

SMILES: Cc1noc(C)c1CN(C)CCc1nc(-c2cccc(Cl)c2)no1
Percent Effect: 5.376%

SMILES: Cc1ncc(CN2CCCN(Cc3noc(C4CC4)n3)CC2)s1
Percent Effect: 23.64%

SMILES: Fc1cnc(N2CCOC3(CCN(Cc4ccsc4)CC3)C2)nc1
Percent Effect: 3.922%

SMILES: CCc1ccc(CN2C[C@@H]3COC[C@H](NS(C)(=O)=O)[C@@H]3C2)o1
Percent Effect: -1.389%

SMILES: COc1cc2c(nn1)CCN(CC(O)COc1ccc(C#N)cc1)C2 (stereo not shown)
Percent Effect: 9.524%

SMILES: CN(C)C(=O)Cn1ccc2cc(NC(=O)N3CCSCC3)ccc21
Percent Effect: 5.759%

SMILES: CC(=O)c1cc(C(=O)N2Cc3ccccc3OC3(CCOCC3)C2)cs1
Percent Effect: 11.58%

SMILES: O=C(c1[nH]nc(C2CC2)c1Cl)N1CCN(S(=O)(=O)c2ccccc2)CC1
Percent Effect: 31.43%

SMILES: O=C(C1CCOC1)N1CCC2(CC1)Cc1ccccc1CNC2=O (stereo not shown)
Percent Effect: 10%

SMILES: CCCNC(=O)C(C)n1nc(-c2ccc(C)o2)cc(N)c1=O (stereo not shown)
Percent Effect: 12.08%

SMILES: COc1ncccc1N(C)C(=O)Cn1cc(-c2ccccc2)nn1
Percent Effect: 2.073%

SMILES: CC1N(c2cnn(C)c2)C(=O)COC12CCN(c1ccccn1)CC2 (stereo not shown)
Percent Effect: 13.46%

SMILES: CCC1=N[C@@]2(CC[C@@H]3CN(S(=O)(=O)CC)C[C@@H]32)C(=O)N1CCOC
Percent Effect: 18.58%

SMILES: Cc1nc(N)nc(C)c1CC(=O)N1CCCN(CC2CC2)C(C(C)C)C1 (stereo not shown)
Percent Effect: 14.67%

SMILES: CCc1nnc(S(=O)(=O)Cc2cc(Cl)c3c(c2)OCO3)n1C
Percent Effect: -15.79%

SMILES: CC1(C)CN(C(=O)CCc2nc(-c3ccncc3)no2)CCO1
Percent Effect: 8.036%

SMILES: NC(=O)C1(c2cnccn2)CCCN1Cc1ccc(Cl)c(F)c1 (stereo not shown)
Percent Effect: 8.247%

SMILES: Cc1c(F)cc(C(=O)O)cc1S(=O)(=O)Nc1ccccc1
Percent Effect: 6.481%

SMILES: CN1CCN(C[C@@H]2CN(C3Cc4ccccc4C3)C[C@@H]2CO)CC1
Percent Effect: 4.082%

SMILES: CCOCCCC(=O)NCc1ccc(N2CCCCC2)cc1
Percent Effect: 14.58%

SMILES: CN(C)c1cccc(C(=O)N2CCC(c3n[nH]c(C4CC4)n3)CC2)c1
Percent Effect: 9.565%

SMILES: CCOC(=O)N1CC(=O)N(Cc2cccc(OC)c2OC)CC(O)C1 (stereo not shown)
Percent Effect: 8.163%

SMILES: O=C(O)C1CCN(C[C@H]2CC[C@@H](Cc3ccc4c(c3)OCO4)O2)CC1
Percent Effect: -5.479%

SMILES: Cc1ccc(-c2cc(C(=O)N(C)Cc3noc4c3CCCC4)[nH]n2)o1
Percent Effect: 32.53%

SMILES: CN1CC(=O)N(c2ccsc2)CC12CCN(Cc1nccn1C)C2 (stereo not shown)
Percent Effect: 4.425%

SMILES: O=C(c1ccc(O)c(Cl)c1)N1CCN(c2nccs2)CC1
Percent Effect: 17.65%

SMILES: CC(CN1CCCCCC1)NCc1cc(-c2ccco2)on1 (stereo not shown)
Percent Effect: 21.31%

SMILES: Cc1cccc(C)c1NC(=O)CNC(C)Cc1ccsc1 (stereo not shown)
Percent Effect: 9.091%

SMILES: Cc1oc(-c2nc(C#N)c(NCC(C)C)o2)cc1S(=O)(=O)N1CCCC1
Percent Effect: -5.263%

SMILES: Cn1cccc1CNCC1CCCn2cc(C(C)(C)C)nc21 (stereo not shown)
Percent Effect: 13.95%

SMILES: CNC(=O)c1cccnc1N1CCN(C/C=C/c2ccccc2)CC1
Percent Effect: 17.58%

SMILES: c1cnc(Nc2cncc(C3CCCN(c4cnccn4)C3)n2)nc1 (stereo not shown)
Percent Effect: 16.49%

SMILES: Cc1cccc(CN2C[C@@H]3CN(C4CCOCC4)C[C@@H]3C2=O)c1
Percent Effect: 19.74%

SMILES: CN(C)c1ncc2c(n1)CCCC2NC(=O)c1ccsc1 (stereo not shown)
Percent Effect: 1.613%

The last 5 entries again:

For Cn1cccc1CNCC1CCCn2cc(C(C)(C)C)nc21 (stereo not shown) the result was 13.95%.
For CNC(=O)c1cccnc1N1CCN(C/C=C/c2ccccc2)CC1 the result was 17.58%.
For c1cnc(Nc2cncc(C3CCCN(c4cnccn4)C3)n2)nc1 (stereo not shown) the result was 16.49%.
For Cc1cccc(CN2C[C@@H]3CN(C4CCOCC4)C[C@@H]3C2=O)c1 the result was 19.74%.
For CN(C)c1ncc2c(n1)CCCC2NC(=O)c1ccsc1 (stereo not shown) the result was 1.613%.